Data on one sequence can be found in article PMC10906927, “Structure of the PCNA unloader Elg1-RFC” (Science Advances, 2024).

This series deals with Elg1-RFC (Elg1, Rfc2, Rfc3, Rfc4, Rfc5) + PCNA (cryo-EM sample). In words: cryo-EM. As to conditions: 0.5 mM ATPgS, 6.7 mM Mg-acetate, glutaraldehyde used to stabilise Elg1-RFC-PCNA, no DNA density; Loading/gel filtration: 20 mM Tris-HCl pH 7.5, 0.5 mM EDTA, 0.1 mg/ml BSA, 4% glycerol, 8 mM MgCl2, 2 mM DTT, 50 mM NaCl (100 mM in column), 2 mM ATP; recombinant protein; protein details: 3xFLAG on Elg1. In general terms: SEC sorts molecules by how far they enter the pores of the column.

Construct, isoform or probe ends are uncertain for at least one entry. A negative result means that nothing was seen under these conditions.

“GCCTAGCTCGACGCCATTAATAATGTTTTC / GAAAACATTATTAATGGCGTCGAGCTAGGCACAAGGCGAACTGCTAACGG [30-nt primer/50-nt template tailed DNA]”: the binding result was “no binding”.
